In the assay the target is GST-Aurora B (UniProt Q96GD4). The assay is described as follows: pull-down; GST-Aurora B or GST on Glutathione-Sepharose (5 µL) incubated with 2-54 µg 2P-MRLC for 1 h at 4°C in binding buffer (45 mM HEPES-NaOH pH 7.2, 139 mM NaCl, 1 mM MgCl2, 0.3 mM CaCl2, 0.1% Triton X-100, 6.8 µg/mL CaM) with 14 µg/mL MLCK; bound MRLC detected by western blot; both purified. (In general: A western blot detects proteins with antibodies after separation by electrophoresis.)

Amino acid sequences for entries named in this document (tags omitted).
UniProt Q96GD4: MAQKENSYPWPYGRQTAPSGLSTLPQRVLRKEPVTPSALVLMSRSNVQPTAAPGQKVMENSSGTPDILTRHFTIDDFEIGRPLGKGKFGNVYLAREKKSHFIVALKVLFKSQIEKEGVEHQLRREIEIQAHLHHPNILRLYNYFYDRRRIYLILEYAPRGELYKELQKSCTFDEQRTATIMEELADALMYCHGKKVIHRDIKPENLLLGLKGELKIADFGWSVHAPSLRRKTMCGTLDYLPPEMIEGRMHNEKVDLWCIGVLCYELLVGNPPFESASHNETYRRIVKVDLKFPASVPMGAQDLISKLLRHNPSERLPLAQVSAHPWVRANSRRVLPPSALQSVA
UniProt O14950: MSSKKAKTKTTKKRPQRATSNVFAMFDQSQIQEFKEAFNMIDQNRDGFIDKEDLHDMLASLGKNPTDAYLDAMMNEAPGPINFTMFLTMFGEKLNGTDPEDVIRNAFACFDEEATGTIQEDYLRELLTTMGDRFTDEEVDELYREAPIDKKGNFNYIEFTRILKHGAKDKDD

No constants are given. Whether binding was seen depends on the method and setting. Some binding calls cover weakened binding; strength is not graded here.

For “diphosphorylated MRLC (recombinant MRLC2, phosphorylated in vitro) (from UniProt O14950 1-172)”, the binding entry is “binds”.

The values are drawn from paper PMC3737224.
